Reference: US20230075368A1, “IDENTIFICATION OF AN EGFR-BIN3 PATHWAY THAT ACTIVELY SUPPRESSES INVASION AND REDUCES TUMOR SIZE IN GLIOBLASTOMA” (The United States Govemment as represented by the …, priority 2020, published 2023)
Results are given in words; binding and its absence hold for the method and conditions named. In cells and extracts the contact can be indirect. Some binding calls cover weakened binding; strength is not graded here.

Chains of the proteins cited; added tags and fusions are not shown. Lines headed by an entry give the natural chain unless they say otherwise; changes in a name come on top.
UniProt P60953: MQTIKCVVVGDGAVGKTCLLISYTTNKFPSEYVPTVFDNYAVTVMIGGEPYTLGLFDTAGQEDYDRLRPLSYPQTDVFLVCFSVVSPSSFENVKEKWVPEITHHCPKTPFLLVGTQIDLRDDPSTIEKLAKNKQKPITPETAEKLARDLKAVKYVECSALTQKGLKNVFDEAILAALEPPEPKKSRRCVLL
UniProt Q96N67: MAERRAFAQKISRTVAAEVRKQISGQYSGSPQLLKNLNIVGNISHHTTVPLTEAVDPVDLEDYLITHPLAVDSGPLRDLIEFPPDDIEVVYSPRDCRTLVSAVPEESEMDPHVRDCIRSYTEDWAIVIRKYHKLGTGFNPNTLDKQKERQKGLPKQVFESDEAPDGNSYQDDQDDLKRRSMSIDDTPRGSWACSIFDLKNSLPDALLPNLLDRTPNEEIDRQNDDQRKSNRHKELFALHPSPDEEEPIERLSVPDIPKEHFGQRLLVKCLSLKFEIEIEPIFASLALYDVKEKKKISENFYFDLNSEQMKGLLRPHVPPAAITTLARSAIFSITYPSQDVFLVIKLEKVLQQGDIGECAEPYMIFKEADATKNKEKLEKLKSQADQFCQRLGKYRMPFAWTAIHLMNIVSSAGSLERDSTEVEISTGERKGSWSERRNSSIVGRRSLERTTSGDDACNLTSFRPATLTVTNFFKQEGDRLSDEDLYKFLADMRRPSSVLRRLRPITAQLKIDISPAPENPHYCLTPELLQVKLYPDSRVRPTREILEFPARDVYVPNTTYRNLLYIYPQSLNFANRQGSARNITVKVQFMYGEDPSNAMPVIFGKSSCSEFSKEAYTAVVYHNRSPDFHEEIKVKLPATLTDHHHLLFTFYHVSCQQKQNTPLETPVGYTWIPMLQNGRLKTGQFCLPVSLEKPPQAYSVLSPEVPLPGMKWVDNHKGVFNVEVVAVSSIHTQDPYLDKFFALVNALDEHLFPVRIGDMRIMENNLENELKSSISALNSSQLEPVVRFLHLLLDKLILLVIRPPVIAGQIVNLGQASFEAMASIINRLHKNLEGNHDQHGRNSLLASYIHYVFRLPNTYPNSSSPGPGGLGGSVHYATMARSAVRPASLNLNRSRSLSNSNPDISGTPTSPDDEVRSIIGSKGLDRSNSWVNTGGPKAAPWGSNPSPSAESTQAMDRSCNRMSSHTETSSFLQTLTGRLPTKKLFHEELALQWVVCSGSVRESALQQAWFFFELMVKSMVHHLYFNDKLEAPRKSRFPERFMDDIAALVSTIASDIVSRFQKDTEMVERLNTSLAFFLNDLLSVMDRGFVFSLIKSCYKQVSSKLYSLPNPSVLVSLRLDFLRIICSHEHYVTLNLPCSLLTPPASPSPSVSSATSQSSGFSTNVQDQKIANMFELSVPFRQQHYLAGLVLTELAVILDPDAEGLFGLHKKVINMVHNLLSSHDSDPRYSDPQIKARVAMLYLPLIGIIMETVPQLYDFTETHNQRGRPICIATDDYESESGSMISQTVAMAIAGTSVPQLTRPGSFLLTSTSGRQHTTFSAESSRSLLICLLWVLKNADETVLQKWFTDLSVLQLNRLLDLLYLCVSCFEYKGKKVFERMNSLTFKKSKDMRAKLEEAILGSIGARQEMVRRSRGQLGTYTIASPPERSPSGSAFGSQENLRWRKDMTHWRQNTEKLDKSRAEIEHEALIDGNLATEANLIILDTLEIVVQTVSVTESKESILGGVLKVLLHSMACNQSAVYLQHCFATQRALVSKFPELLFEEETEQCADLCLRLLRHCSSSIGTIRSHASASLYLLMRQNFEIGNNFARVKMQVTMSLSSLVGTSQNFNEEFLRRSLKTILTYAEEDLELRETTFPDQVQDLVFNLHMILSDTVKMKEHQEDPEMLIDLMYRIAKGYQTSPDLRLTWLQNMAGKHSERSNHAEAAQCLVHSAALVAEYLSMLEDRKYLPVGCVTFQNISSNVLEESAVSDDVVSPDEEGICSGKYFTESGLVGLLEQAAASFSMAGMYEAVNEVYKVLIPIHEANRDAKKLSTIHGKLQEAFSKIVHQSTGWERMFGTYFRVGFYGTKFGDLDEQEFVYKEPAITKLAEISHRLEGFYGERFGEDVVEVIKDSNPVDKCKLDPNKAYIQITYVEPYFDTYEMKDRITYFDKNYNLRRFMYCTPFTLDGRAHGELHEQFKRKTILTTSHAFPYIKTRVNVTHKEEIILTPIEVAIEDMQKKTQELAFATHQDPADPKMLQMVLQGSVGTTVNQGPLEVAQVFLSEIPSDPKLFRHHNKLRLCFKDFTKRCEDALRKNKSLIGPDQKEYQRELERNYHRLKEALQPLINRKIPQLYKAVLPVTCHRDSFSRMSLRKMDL

Molecular target: Cdc42 G15A agarose beads (ab211185, Abcam) (UniProt P60953)
Assay: pull-down with Cdc42 G15A agarose beads from lysates of GBM12 and GBM6, Western blot with DOCK7 antibody (FIG. 9P)

DOCK7 (dedicator of cytokinesis 7) (from UniProt Q96N67 1-2140) (enzyme)
binding: binds
